This passage reports AC50 and IC50 results from patent US12606541B2, “PPARg modulators and methods of use” (Eisai R&D Management Co., Ltd., priority 2020, dated 2026).

Sequences of proteins named here, by UniProt entry; tags and fusion partners are left off. Residues count along the entry.
UniProt P37231, 234-505 limits assumed: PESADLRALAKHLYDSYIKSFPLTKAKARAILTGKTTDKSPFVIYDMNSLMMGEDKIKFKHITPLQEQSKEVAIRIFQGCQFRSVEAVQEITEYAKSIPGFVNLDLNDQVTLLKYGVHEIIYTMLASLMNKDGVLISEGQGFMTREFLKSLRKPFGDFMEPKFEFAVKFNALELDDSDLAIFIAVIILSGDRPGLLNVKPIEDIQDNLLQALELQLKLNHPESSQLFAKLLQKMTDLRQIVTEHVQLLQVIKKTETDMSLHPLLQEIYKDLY

One assay has as its target His6-TEV-PPARγ-(234-505) (Homo sapiens, UniProt P37231). The experiment in a line: TR-FRET Assay to Measure Co-R Peptide Recruitment to PPARγ. The note with it: read-out: TR-FRET i-Ag, Co-R peptide (SMRT-ID2) recruitment, top final concentration 20 μM. Background: In TR-FRET formats the signal depends on donor and acceptor labels being close together.
Another assay deals with UM-UC-9 engineered cells. Kind of assay: Cell proliferation / short-term viability assay, CellTiter-Glo 144 h. The note with it: read-out: CTGlo 144 h UMUC9.5, G150. On the procedure:
Cell Seeding for Proliferation Assay
UM-UC-9 engineered cells were cultured in Dulbecco's Modified Eagle Medium (DMEM) supplemented with 10% FBS, 25 mM glucose (high glucose), 4.0 mM L-glutamine, 2.0 mM GlutaMAX™, 1.0 mM pyruvate, 1.0% non-essential amino acids (NEAA) in a 95% humidified incubator at 37° C. with 5% CO2. Cell banks of UM-UC-9 engineered assay-ready cells (ARCs) were prepared from a very active growth stage. Vials of ARCs containing approximately 5×10^6 cells per vial were stored in liquid nitrogen vapor phase cryostorage until use.
For making assay plates, ARCs were recovered from cryostorage, strained in a […] cell strainer, verified for cell viability >90% and counted using a cell counter (Cellometer Auto 1000, Nexelom). Each cell line was seeded into 384-well plates (50 μl/well) using DMEM medium at a density previously determined to be in log growth phase 7 days post-seeding (500 cells/well) using a bulk reagent dispenser (Multidrop™ Combi, Thermo Scientific) with a large-bore plastic-tip cassette pre-sanitized with 70% ethanol. One plate of cells was designated as the pretreatment time-zero (T0) control. Freshly seeded plates were allowed to sit lidded for 30 minutes within a biosafety cabinet for cells to settle distributed within the plate wells uniformly and then placed into an automated incubator (STX110, Liconic) at 37° C., 5% CO2, and 95% relative humidity.
Preparation of Test Compound in Assay-Ready Plate
Compounds were stored in a low-temperature sample archive as 10 mM dimethyl sulfoxide (DMSO) solutions at −20° C. under reduced humidity (−45° C. dew point) and protected from light. […] Samples retrieved from low-temperature archive storage were solubilized by heated sonication (Bransonic® Ultrasonic Bath, Branson), transferred (Microlab Starlet, Hamilton) and serially-diluted (Viaflo Assist, Integra) by low-volume liquid handlers, and tracked in LIMS by automation log files to create a ID barcoded master dose-response plate (MDR) to serve as a standard source for all assay-ready plates (ARP) used within an experiment. […]

pIC50: −log10 of the molar value. The structures given here were assigned with low confidence; some may be wrong.

Take `COc1cc(-c2cc(C(=O)N3CCC(C(=O)NC4CCC(C(F)(F)F)N(C)C4)CC3)n[nH]2)c(Cl)cn1` (single isomer, unassigned) [Example 248]: the AC50 on His6-TEV-PPARγ-(234-505) amounted to 66.3 nM. In addition, the pIC50 in the assay on UM-UC-9 engineered cells was 6.39.

With `COc1cc(-c2cc(C(=O)N3CCC(C(=O)NC4CCC(C(F)(F)F)OC4)CC3)n[nH]2)c(Cl)cn1` (single isomer, unassigned) [Example 249], the AC50 on His6-TEV-PPARγ-(234-505) turned out to be 26.4 nM. Further, the pIC50 in the assay with UM-UC-9 engineered cells was 6.61.

Take `COc1cc(-c2cc(C(=O)N3CC[C@H](C(=O)NC4CCC(C)N(C)C4)CC34CC4)n[nH]2)c(F)cn1` (single isomer, unassigned) [Example 423]: the AC50 at His6-TEV-PPARγ-(234-505) came out at 1890 nM. The pIC50 in the assay on UM-UC-9 engineered cells is 5.61.
